Reference: publication doi:10.1101/2025.04.07.647595
Construct, isoform or probe ends are uncertain for at least one entry. At least one verdict rests on a figure or table, not on a statement of the authors. Tags and fusion partners may be left off the protein sequences shown.

Tests used:
Sxl-dRBD3 = molecular target: T1, Sxl-dRBD3 (UniProt P19339); experiment: ITC; details: 298 K, value only in figure, residues 123-294
T1 sequence (looked up): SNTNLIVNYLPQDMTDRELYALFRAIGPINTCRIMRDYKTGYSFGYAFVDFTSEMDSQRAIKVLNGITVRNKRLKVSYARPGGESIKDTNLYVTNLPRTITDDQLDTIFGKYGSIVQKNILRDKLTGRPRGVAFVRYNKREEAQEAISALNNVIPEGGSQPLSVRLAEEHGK

Sxl-dRBD5 = molecular target: T2, Sxl-dRBD5 (UniProt P19339); experiment: ITC; details: 298 K, tighter than dRBD3, value only in figure, residues 122-305
T2 sequence (looked up): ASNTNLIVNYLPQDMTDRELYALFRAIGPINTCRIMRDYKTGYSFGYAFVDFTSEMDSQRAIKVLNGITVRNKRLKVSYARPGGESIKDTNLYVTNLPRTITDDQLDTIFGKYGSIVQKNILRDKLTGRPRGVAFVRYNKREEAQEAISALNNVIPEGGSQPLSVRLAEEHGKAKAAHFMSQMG

Measured: binding result

UUUUUUUUUU [U10-mer RNA]
binds: Sxl-dRBD3; 50 mM KCl | Sxl-dRBD3; 150 mM KCl | Sxl-dRBD5; 50 mM KCl | Sxl-dRBD5; 150 mM KCl
